Binding data for three substances are collected here from article doi:10.1101/2022.01.20.477040.

Chains of the proteins cited; added tags and fusions are not shown.
UniProt P84022: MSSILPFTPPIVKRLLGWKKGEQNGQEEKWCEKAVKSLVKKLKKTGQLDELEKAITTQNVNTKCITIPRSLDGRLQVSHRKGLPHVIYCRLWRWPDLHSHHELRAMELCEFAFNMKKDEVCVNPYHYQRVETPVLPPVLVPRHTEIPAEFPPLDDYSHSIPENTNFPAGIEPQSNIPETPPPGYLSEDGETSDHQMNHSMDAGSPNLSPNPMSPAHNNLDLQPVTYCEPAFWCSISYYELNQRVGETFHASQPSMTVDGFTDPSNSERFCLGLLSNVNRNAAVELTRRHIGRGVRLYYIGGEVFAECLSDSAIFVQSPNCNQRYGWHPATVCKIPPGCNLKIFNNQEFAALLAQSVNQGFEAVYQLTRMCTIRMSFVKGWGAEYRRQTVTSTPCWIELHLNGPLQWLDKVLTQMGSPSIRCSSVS
UniProt Q15365: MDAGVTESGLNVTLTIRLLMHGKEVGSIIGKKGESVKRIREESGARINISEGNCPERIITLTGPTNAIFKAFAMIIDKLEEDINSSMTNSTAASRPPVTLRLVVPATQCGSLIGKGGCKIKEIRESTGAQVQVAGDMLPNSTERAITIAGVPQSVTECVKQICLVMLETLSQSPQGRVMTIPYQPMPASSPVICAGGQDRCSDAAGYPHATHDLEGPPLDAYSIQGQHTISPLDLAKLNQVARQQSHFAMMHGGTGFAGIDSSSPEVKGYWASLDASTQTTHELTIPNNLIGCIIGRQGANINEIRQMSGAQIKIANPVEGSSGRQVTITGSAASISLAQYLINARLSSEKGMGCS
UniProt P60335: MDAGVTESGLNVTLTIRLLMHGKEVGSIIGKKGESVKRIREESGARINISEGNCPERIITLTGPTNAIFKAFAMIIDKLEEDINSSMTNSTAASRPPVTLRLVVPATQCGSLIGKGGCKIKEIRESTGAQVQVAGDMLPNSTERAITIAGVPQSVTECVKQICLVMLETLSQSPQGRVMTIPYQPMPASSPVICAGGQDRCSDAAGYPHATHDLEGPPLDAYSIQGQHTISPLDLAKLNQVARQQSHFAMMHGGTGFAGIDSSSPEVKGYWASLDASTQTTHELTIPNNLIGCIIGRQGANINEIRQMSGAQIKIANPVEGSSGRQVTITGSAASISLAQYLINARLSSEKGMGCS
UniProt Q8BUN5: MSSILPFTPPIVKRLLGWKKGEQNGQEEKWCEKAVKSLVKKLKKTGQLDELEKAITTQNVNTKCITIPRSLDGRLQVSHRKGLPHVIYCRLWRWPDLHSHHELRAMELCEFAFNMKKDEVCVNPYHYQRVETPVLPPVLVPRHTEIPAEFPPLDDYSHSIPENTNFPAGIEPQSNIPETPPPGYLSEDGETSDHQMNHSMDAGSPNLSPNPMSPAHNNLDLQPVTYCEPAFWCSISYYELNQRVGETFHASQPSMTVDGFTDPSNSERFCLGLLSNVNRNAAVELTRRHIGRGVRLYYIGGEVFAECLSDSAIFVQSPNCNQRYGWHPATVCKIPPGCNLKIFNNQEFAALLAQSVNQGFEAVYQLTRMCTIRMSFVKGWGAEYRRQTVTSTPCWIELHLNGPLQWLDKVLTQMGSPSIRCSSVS

Assay [1] deals with Smad3 (human (endogenous in HeLa)) (UniProt P84022). Put plainly: co-IP.
The target of assay [2] is PCBP1 (poly-(rC)-binding protein 1) (human (endogenous in HeLa)) (UniProt Q15365). Put plainly: co-IP.
In assay [3] the target is PCBP1 (poly-(rC)-binding protein 1) (mouse (endogenous in primary MSN cultures)) (UniProt P60335). Put plainly: proximity ligation.

Results are given in words; binding and its absence hold for the method and conditions named. Binding seen in cells or lysates may run through a third protein. Some results given as binding are weak or reduced against the parent protein; the word gives no strength.

For “PCBP1 (poly-(rC)-binding protein 1) (from UniProt Q15365 1-356)”, the binding result in assay [1] is on record as “binds”.
Take Smad3 (from UniProt P84022 1-425): the binding entry in assay [2] is on record as “binds”.
Regarding Smad3 (from UniProt Q8BUN5 1-425), in assay [3], the binding entry is “binds”.
